{
  "source": "PubChem BioAssay AID504467",
  "about": "(National Center for Advancing Translational Sciences (NCATS), 2011)",
  "note": "Among all 330,000 compounds or so, about 7,700 (2.3%) were called active. Inconclusive means that the source gave no clear call. Such entries were picked first, then a sample of the others. Calls come from the whole dose curve; as a rule, active = well fitted inhibition curve with a large enough effect; inconclusive = small, poorly fitted or top-dose-only effect, or effect the other way; inactive = flat fitted curve, though single readings scatter. Where the call is inconclusive, the potency comes from a doubtful curve fit. Potency is the fitted concentration of half-maximal effect.",
  "data": [
    {"assay": "qHTS screen for small molecules that inhibit ELG1-dependent DNA repair in human embryonic kidney (HEK293T) cells expressing luciferase-tagged ELG1; note: nearly all actives have a fitted effect of over 55% in size", "conditions": "HEK293T ELG1-luciferase reporter, luminescence, 16 h, DNA damage induced by 5-fluorouridine; series mostly up to 46.1 µM", "outline": "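HEK293T cells expressing luciferase-tagged ELG1 (2,000/well) received 5-Fluorouridine plus compound or DMSO for 16 hr at 37 °C. Luciferase was read by ONE-Glo luminescence after 30 min at room temperature.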", "values": [
      {"smiles": "O=C(Cc1ccccc1)Nc1nc2ccccc2[nH]1", "Potency": "inconclusive: 25.9 µM [activator, single point]"},
      {"smiles": "O=C1C2C3C=CC(C3)C2C(=O)N1/N=C/c1ccc(-c2ccccc2[N+](=O)[O-])o1", "note": "(stereo not given)", "Potency": "inconclusive: 18.4 µM [activator, single point]"},
      {"smiles": "CC(C)Cn1cc(C(=O)N2CCOCC2)c2c3ccccc3n(C)c2c1=O", "Potency": "inconclusive: 5.17 µM [inhibitor, partial curve]"},
      {"smiles": "CCN(CC)CCn1c(=S)[nH]c2cc3c(cc2c1=O)OCO3", "Potency": "inconclusive: 10 µM [inhibitor, partial curve, poor fit]"},
      {"smiles": "COc1cc2c(cc1NC(=O)COC(=O)CNS(=O)(=O)c1ccc(C)cc1)oc1ccccc12", "Potency": "inconclusive: 16.4 µM [activator, partial curve]"},
      {"smiles": "CN1CCN(c2ccccc2NC(=O)c2cccc(OCc3ccccc3)c2)CC1", "Potency": "active: 20.6 µM"},
      {"smiles": "COc1ccc(CNS(=O)(=O)c2ccc3c(c2)CCN3C(=O)C2CC2)cc1", "Potency": "inconclusive: 29.1 µM [inhibitor, partial curve, poor fit]"},
      {"smiles": "CCOc1ccc(S(=O)(=O)Nc2ccc(C(=O)NCC(C)(C)N3CCOCC3)cc2)cc1", "Potency": "inconclusive: 29.1 µM [activator, single point]"},
      {"smiles": "O=C(Nc1cccc([N+](=O)[O-])c1)N1CCCCCC1", "Potency": "inconclusive: 14.6 µM [activator, partial curve, poor fit]"},
      {"smiles": "CCCCCC(=O)Nc1ccc(C(=O)COC(=O)Cn2cnc3c2c(=O)n(C)c(=O)n3C)cc1", "Potency": "inconclusive: 18.3 µM [activator, partial curve, poor fit]"},
      {"smiles": "CCOC(=O)c1cnc2cc(Cl)c(OC)cc2c1NCC1CCCO1", "note": "(stereo not given)", "Potency": "inconclusive: 4.11 µM [inhibitor, single point]"},
      {"smiles": "Cc1ccc(OCC(=O)Nc2ccc(N(C)C)cc2)cc1", "Potency": "inconclusive: 14.6 µM [activator, partial curve, poor fit]"},
      {"smiles": "Clc1cccc(-c2nc(NCCCN3CCOCC3)c3ccccc3n2)c1", "Potency": "inconclusive: 20.6 µM [inhibitor, single point]"},
      {"smiles": "Cc1c(Cl)ccc2c(C(=O)NCCN3CCCCC3)cc(-c3ccccn3)nc12", "Potency": "inconclusive: 16.4 µM [activator, single point]"},
      {"smiles": "CCOC(=O)c1c(NC(=O)CC2Nc3ccccc3NC2=O)sc(C)c1C", "note": "(stereo not given)", "Potency": "inconclusive: 29.1 µM [inhibitor, partial curve, poor fit]"},
      {"smiles": "COc1ccc(NC(=O)Cc2csc(NC(=O)Nc3ccccc3OC)n2)c(OC)c1", "Potency": "inconclusive: 16.4 µM [inhibitor, single point]"},
      {"smiles": "O=C(CCNc1ccccc1)c1ccc2c(c1)OCO2", "Potency": "inconclusive: 4.61 µM [activator, partial curve]"},
      {"smiles": "Nn1cnnc1N/N=C/c1ccc(Cl)c([N+](=O)[O-])c1", "Potency": "inactive"},
      {"smiles": "COc1ccc2c(c1)cc(C(=O)N[C@H](C(=O)N1CCC(C(=O)O)CC1)C(C)C)n2C", "Potency": "inactive"},
      {"smiles": "Cc1ccc(S(=O)(=O)NCCSc2nnnn2-c2cc(C)ccc2C)cc1", "Potency": "inconclusive: 20.6 µM [inhibitor, partial curve]"},
      {"smiles": "O=C(CN1CCCCC1)Nc1ccc(Br)cc1[N+](=O)[O-]", "Potency": "inconclusive: 16.4 µM [activator, single point]"},
      {"smiles": "CCOc1ccccc1/C=C/c1onc(C)c1S(=O)(=O)N1CCC(C(=O)N(CC)CC)CC1", "Potency": "active: 5.8 µM"},
      {"smiles": "CC(C)c1ccc(NC(=O)c2cc(S(=O)(=O)NCC3COc4ccccc4O3)ccc2F)cc1", "note": "(stereo not given)", "Potency": "inconclusive: 29.1 µM [inhibitor, single point]"},
      {"smiles": "CCOc1ccccc1N(CC)C(=O)c1nn(C)c2c1CSc1ccccc1-2", "Potency": "active: 9.2 µM"},
      {"smiles": "O=c1cc(-c2ccc(Cl)cc2)[nH]c2ccccc12", "Potency": "inactive"},
      {"smiles": "COc1ccccc1NC(=O)C1=C(C)Nc2nc(CCCO)nn2C1c1ccc2c(c1)OCO2", "note": "(stereo not given)", "Potency": "inconclusive: 16.4 µM [inhibitor, single point]"},
      {"smiles": "FC(F)(F)c1cccc(Cn2nnnc2-c2cccc(C(F)(F)F)c2)c1", "Potency": "inactive"},
      {"smiles": "O=S(=O)(NC1c2cccc3cccc(c23)C1N1CCN(CCO)CC1)c1ccccc1", "note": "(stereo not given)", "Potency": "inconclusive: 29.1 µM [activator, single point]"},
      {"smiles": "COc1ccc(C2=NOC(C(=O)NCc3ccccn3)C2)cc1OC", "note": "(stereo not given)", "Potency": "inactive"},
      {"smiles": "COC(=O)c1ccc(-c2noc(CN(C)CCC3CCCCO3)n2)cc1", "note": "(stereo not given)", "Potency": "inconclusive: 29.1 µM [activator, partial curve, poor fit]"},
      {"smiles": "O=C(CCc1ccc(Oc2cc([N+](=O)[O-])cc([N+](=O)[O-])c2)cc1)N1CCCCC1", "Potency": "active: 13 µM"},
      {"smiles": "CCCc1cc(C(=O)Nc2cccc([N+](=O)[O-])c2)cs1", "Potency": "inconclusive: 8.2 µM [activator, partial curve, poor fit]"},
      {"smiles": "Cc1ccc2c(CN(C)Cc3ccc(Cl)cc3Cl)cc(=O)oc2c1", "Potency": "inactive"},
      {"smiles": "Cc1cccc(NC(=O)C2C(c3ccccc3)C2(Cl)Cl)c1", "note": "(stereo not given)", "Potency": "inconclusive: 23.1 µM [inhibitor, single point]"},
      {"smiles": "CCCc1cc(C(=O)N/N=C/c2ccc(C)o2)c2ccccc2n1", "Potency": "inactive"},
      {"smiles": "COc1ccc(C(=O)O)cc1NC(=S)NC(=O)c1ccc(-c2ccc(Cl)cc2)o1", "Potency": "inactive"},
      {"smiles": "COc1cc(OC)c2c(-c3ccccc3)cc(=O)oc2c1C(CCN1CCOCC1)c1ccc(N(C)C)cc1", "note": "(stereo not given)", "Potency": "inconclusive: 29.1 µM [inhibitor, partial curve, poor fit]"},
      {"smiles": "CN1CCN(C(=O)Nc2cccc(-c3ccccc3)c2)CC1", "Potency": "inactive"},
      {"smiles": "COC(=O)c1sc(S(=O)(=O)N2CCN(c3ccccc3)CC2)c(C(=O)OC)c1C", "Potency": "inactive"},
      {"smiles": "Cc1ccc(C)c(NC(=O)c2cc(-c3cc(C)cc(C)c3O)n[nH]2)c1", "Potency": "inconclusive: 16.4 µM [inhibitor, partial curve]"},
      {"smiles": "C/C(=N/NC(=O)c1ccc(Cl)cc1Cl)c1cccnc1", "Potency": "inconclusive: 29.1 µM [activator, single point]"},
      {"smiles": "C[N+](C)(C)C[C@H](O)CC(=O)[O-]", "Potency": "inconclusive: 29.1 µM [inhibitor, single point]"},
      {"smiles": "O=C(NCCc1ccccc1)c1cccc(Br)c1", "Potency": "inconclusive: 14.6 µM [activator, partial curve]"},
      {"smiles": "Cc1[nH]c(=O)c(C#N)cc1-c1csc(-c2ccccc2)n1", "Potency": "inconclusive: 16.4 µM [activator, partial curve, poor fit]"},
      {"smiles": "COc1cc(C(=S)N2CCOCC2)ccc1OC(=O)c1cccc(C)c1", "Potency": "inconclusive: 23.1 µM [inhibitor, single point]"},
      {"smiles": "CCOCCCNC(=O)c1ccc(OC)c(OC2CCN(C(C)C)CC2)c1", "Potency": "inactive"},
      {"smiles": "COC(=O)c1c(NC(=O)CN2CCC3(O)CCCCC3C2c2ccc(OC)cc2OC)sc(C)c1C", "note": "(stereo not given)", "Potency": "inconclusive: 32.6 µM [inhibitor, single point]"},
      {"smiles": "Cn1c(=O)[nH]c(Nc2ccccc2)c([N+](=O)[O-])c1=O", "Potency": "inactive"},
      {"smiles": "CCc1ccc(NC(=O)C(C)OC(=O)C2CCN(c3ccc(C(F)(F)F)cn3)CC2)cc1", "note": "(stereo not given)", "Potency": "inactive"},
      {"smiles": "Cn1c(CCN2CCOCC2)nc2cc(NS(=O)(=O)c3ccccc3)ccc21", "Potency": "inactive"},
      {"smiles": "O=C(Nc1ccncc1)C1CC1c1ccccc1", "note": "(stereo not given)", "Potency": "active: 0.146 µM"},
      {"smiles": "CN(C)S(=O)(=O)c1cccc(-n2sc3ccccc3c2=O)c1", "Potency": "inconclusive: 29.1 µM [activator, single point]"},
      {"smiles": "O=C(NCc1csc(-c2cccs2)n1)C1CCC1", "Potency": "inconclusive: 18.3 µM [activator, partial curve]"},
      {"smiles": "O=C(COC(=O)Cc1ccc(Br)cc1)Nc1c(F)c(F)c(F)c(F)c1F", "Potency": "inconclusive: 23.1 µM [activator, single point]"},
      {"smiles": "COc1ccc(CCNC2=NCCS2)cc1OC", "Potency": "inconclusive: 13 µM [inhibitor, partial curve, poor fit]"},
      {"smiles": "CC(C)COc1ccc(C(=O)CCN2CCCCC2)cc1", "Potency": "inactive"},
      {"smiles": "O=C(Nc1nccs1)c1ccc(Cl)c([N+](=O)[O-])c1", "Potency": "inactive"},
      {"smiles": "COc1cc(NC(=O)c2ccc([N+](=O)[O-])o2)ccc1NC(=O)c1cccs1", "Potency": "inactive"},
      {"smiles": "C=CCn1c(-c2ccoc2C)n[nH]c1=S", "Potency": "inconclusive: 1.3 µM [inhibitor, single point]"},
      {"smiles": "O=C(O)CSc1nnc2n(-c3ccccc3)c(=O)c3ccccc3n12", "Potency": "inconclusive: 14.6 µM [activator, partial curve, poor fit]"},
      {"smiles": "O=S(=O)(NCc1cn2ccsc2n1)c1ccc(Oc2ccccc2)cc1", "Potency": "inconclusive: 6.51 µM [inhibitor, single point]"},
      {"smiles": "CC(C)(C)NC(=O)C[C@H]1C[C@H](C(=O)N2CCOCC2)[C@@]2(C)c3[nH]c4cc(-c5ccco5)ccc4c3CCN2C1=O", "Potency": "inactive"},
      {"smiles": "O=C(COC(=O)c1ccccn1)c1cccc(Br)c1", "Potency": "inactive"},
      {"smiles": "COc1ccc(S(=O)(=O)NC2CC3CCC2C3)cc1", "note": "(stereo not given)", "Potency": "inactive"},
      {"smiles": "CC(CC(=O)NCCc1ccc(S(N)(=O)=O)cc1)c1ccccc1", "note": "(stereo not given)", "Potency": "inactive"},
      {"smiles": "CC1CC(C)CN(C(=O)COC(=O)c2ccc3c(c2)OCO3)C1", "note": "(stereo not given)", "Potency": "inconclusive: 14.1 µM [activator, partial curve]"},
      {"smiles": "CCS(=O)(=O)Nc1ccc(C2=NN(C(=S)Nc3ccccc3)C(c3ccco3)C2)cc1", "note": "(stereo not given)", "Potency": "inconclusive: 29.1 µM [inhibitor, single point]"},
      {"smiles": "O=C(Cc1ccccc1)Nc1ccc2c(c1)OC1(CCCC1)O2", "Potency": "inconclusive: 20.6 µM [activator, partial curve]"},
      {"smiles": "COC(=O)COc1cccc(NC(=O)C(c2ccccc2)c2ccccc2)c1", "Potency": "inactive"},
      {"smiles": "Cc1cccc(C(=O)NCC(=O)N2CCN(c3ccc(Cl)cc3)CC2)c1", "Potency": "inconclusive: 23.1 µM [inhibitor, partial curve, poor fit]"}
    ]}
  ]
}
